Test results published in the supplement of paper PMC7752906.
Structures can show the parent of a compound that is named as a salt. The list shows a part of the results. This data set is noisy: repeats of one test often differ as much as different tests do.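 Test system: Schistosoma mansoni schistosomula, roughly 40 per well, imaged in bright field over time and compared with wells given 0.1% DMSO. Distance read-out: the paper calls a drug a hit when its Mahalanobis distance is at least 2.47, three standard deviations above the DMSO control mean. Degeneracy is the share of worms classified opaque.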

These compounds were tested on Schistosoma mansoni schistosomula (assay: degeneracy (percent of somules classified as degenerate/opaque); higher = more parasite degeneration/death; extreme values may be limits of the assay). Details: 10 µM; 72 h.

Going from COc1c2occc2c(OC)c2c(=O)cc(C)oc12 [Khellin] to O=c1oc2ccccc2c(O)c1Cc1c(O)c2ccccc2oc1=O [Dicumarol], the degeneracy rises from 5.56% to 10%.

COc1ccc(C2CNC(=O)C2)cc1OC1CCCC1 (stereo not given) [Rolipram] and CO/N=C(\C(=O)N[C@@H]1C(=O)N2C(C(=O)O)=C(COC(N)=O)CS[C@H]12)c1ccco1 [Cefuroxime] are the same in degeneracy: 0% for the first, 0% for the second.

Going from NC(=O)c1ccc([N+](=O)[O-])cc1Cl [Aklomide] to CC(=O)Nc1ncc([N+](=O)[O-])s1 [Nithiamide], the degeneracy rises from 4% to 8.33%.

Going from CC(C)[C@H](N)C(=O)OCC(CO)OCn1cnc2c(=O)nc(N)[nH]c21 (stereo not given in full) [Valganciclovir Hydrochloride] to CCn1nc(C(=O)O)c(=O)c2cc3c(cc21)OCO3 [Cinoxacin], the degeneracy falls from 12.1% to 2.63%.

Going from Cc1c(O)c(=O)ccn1C [Deferiprone] to CC1=Nc2ccc(Cl)cc2S(=O)(=O)N1 [Diazoxide], the degeneracy rises from 0% to 11.8%.

Compared with CCC(=O)O[C@]1(C(=O)CCl)[C@@H](C)C[C@H]2[C@@H]3CCC4=CC(=O)C=C[C@]4(C)[C@@]3(F)[C@@H](O)C[C@@]21C [Clobetasol Propionate], C[C@@H]1C[C@H]2[C@@H]3CCC4=CC(=O)C=C[C@]4(C)[C@@]3(F)[C@@H](O)C[C@]2(C)[C@@]1(O)C(=O)CO [Dexamethasone] is lower in degeneracy: 13.2% for the first, 8% for the second.

First: CC(C)NCC(O)c1ccc2ccccc2c1 (stereo not given) [Pronetalol Hydrochloride]
Second: CNCC(O)c1cccc(O)c1 [L-phenylephrine]
The degeneracy of the first is lower: 8.16% for the first, 8.57% for the second.

First: CC(=O)O[C@]1(C(C)=O)CC[C@H]2[C@@H]3C[C@H](C)C4=CC(=O)CC[C@]4(C)[C@H]3CC[C@@]21C [Medroxyprogesterone Acetate]
Second: C[C@H]1C[C@@H]2[C@H]([C@@H](O)C[C@@]3(C)[C@H]2CC[C@]3(O)C(=O)CO)[C@@]2(C)C=CC(=O)C=C12 [Methylprednisolone]
The degeneracy of the first is lower: 6.67% for the first, 12% for the second.

First: CN(C)c1nc(N(C)C)nc(N(C)C)n1 [Altretamine]
Second: Cc1cc(/C=C/c2ccc3cc(N(C)C)ccc3[n+]2C)c(C)n1-c1ccccc1 [Pyrvinium Pamoate]
The degeneracy of the first is lower: 2.7% for the first, 100% for the second.

First: CCCNCC(O)COc1ccccc1C(=O)CCc1ccccc1 (stereo not given) [Propafenone]
Second: Cc1ccc(Cl)c(Nc2ccccc2C(=O)O)c1Cl [Meclofenamic Acid]
The degeneracy of the first is higher: 100% for the first, 3.03% for the second.

Compared with CC(=O)OC1CC2CCC1(C)C2(C)C (stereo not given) [Bornyl Acetate], CC1(C)O[C@@H]2C[C@H]3[C@@H]4CCC5=CC(=O)C=C[C@]5(C)[C@@]4(F)[C@@H](O)C[C@]3(C)[C@]2(C(=O)CO)O1 [Triamcinolone Acetonide] is lower in degeneracy: 100% for the first, 0% for the second.

Going from O=c1cc[nH]c(=S)[nH]1 [2-thiouracil] to CCC(=O)c1c(O)cc(O)cc1O [Flopropione], the degeneracy falls from 3.7% to 0%.

Nc1ccc(S(=O)(=O)Nc2ccnn2-c2ccccc2)cc1 [Sulfaphenazole] and O=C(O)COC(=O)Cc1ccccc1Nc1c(Cl)cccc1Cl [Aceclofenac] are the same in degeneracy: 0% for the first, 0% for the second.

CCCCCCCCCCCCCCCC(=O)O[C@@H]1[C@@H](O)[C@@H](O)[C@@H]([C@H](NC(=O)[C@@H]2C[C@@H](CCC)CN2C)[C@H](C)Cl)O[C@@H]1SC [Clindamycin Palmitate Hydrochloride] and CC(C)C[C@@H]1NC(=O)[C@H](CCCN)NC(=O)[C@H](C(C)C)NC(=O)[C@H](Cc2ccc(O)cc2)N[C@@H](CCC(=O)O)C(=O)N[C@@H](CC(N)=O)C(=O)[C@@H](Cc2ccccc2)NC(=O)[C@H](Cc2ccccc2)NC(=O)[C@@H]2CCCN2C(=O)[C@@H](Cc2ccccc2)NC1=O [Tyrothricin] are the same in degeneracy: 0% for the first, 0% for the second.

Going from Nc1ccc2cc3ccc(N)cc3nc2c1 [Proflavine Hemisulfate] to COCCOC(=O)C1=C(C)NC(C)=C(C(=O)OC/C=C/c2ccccc2)C1c1cccc([N+](=O)[O-])c1 (stereo not given) [Cilnidipine], the degeneracy falls from 100% to 25%.

Going from CCN1CCN(c2cc3c(cc2F)c(=O)c(C(=O)O)cn3C2CC2)CC1 [Enrofloxacin] to C[C@H]1C[C@H]2[C@@H]3CCC4=CC(=O)C=C[C@]4(C)[C@@]3(F)[C@@H](O)C[C@]2(C)[C@@]1(O)C(=O)CO [betamethasone], the degeneracy rises from 0% to 19.4%.

First: O=C1C2CC3CC1CC(O)(C3)C2 [Idramantone]
Second: C1CCN2C[C@@H]3C[C@@H](CN4CCCC[C@@H]34)[C@H]2C1 [Sparteine Sulfate]
The degeneracy of the first is lower: 7.69% for the first, 20.7% for the second.

In the case of C=C1/C(=C\C=C2/CCC[C@]3(C)[C@@H]([C@H](C)/C=C/[C@@H](O)C4CC4)CC[C@@H]23)C[C@@H](O)C[C@@H]1O [Calcipotriene], the degeneracy is reported as 16%.
